Measured values taken from the odorant receptor screen of Mainland et al. (2015).
Where “and” joins values, the source holds several entries; their conditions need not be identical. Identical values can stand only once. The list shows a part of the results. Each value is one well over the wells without odorant, computed here; the data are noisy.

These compounds were tested on OR6B1 R143C clone 1181 (assay: odorant receptor activation (CRE luciferase / Renilla) (fold of no-odor wells); higher = more activation). Settings: 100 µM.
Compound `COC(=O)c1ccccc1` [methyl benzoate] has an odorant receptor activation of 0.897.
For `CCCCCOC(C)=O` [n-amyl acetate], the odorant receptor activation was 0.657.
Compound `CC1COCc2cc3c(cc21)C(C)(C)C(C)C3(C)C` (stereo unspecified) [galaxolide] has an odorant receptor activation of 0.663.
`C=CCc1ccc(OC(C)=O)c(OC)c1` [eugenol acetate] was tested, and the odorant receptor activation was 2.23.
In the case of `CC12CCC(CC1)C(C)(C)O2` [cineole], the odorant receptor activation is reported as 0.902.
For `CCCC(=O)O` [butyric acid], the odorant receptor activation was 0.811.
`CCCCCC(C)=O` [2-heptanone] was tested, and the odorant receptor activation was 1.32.
With `CC(C)(C)c1ccc(CCC=O)cc1` [bourgeonal] the odorant receptor activation was 0.688.
With `CC(=O)OC1CC2CCC1(C)C2(C)C` (stereo unspecified) [isobornyl acetate] the odorant receptor activation was 0.699.
In the case of `CCCCO` [1-butanol], the odorant receptor activation is reported as 0.933.
With `CC(=O)c1ccccc1` [acetophenone] the odorant receptor activation was 1.33.
`COc1ccccc1O` [guaiacol] showed an odorant receptor activation of 0.869.
`O=CCc1ccccc1` [phenyl acetaldehyde] gave an odorant receptor activation of 0.721.
`CC12C=CCC1C1CCC3CC(=O)CCC3(C)C1CC2` (stereo unspecified) [androstenone] was tested, and the odorant receptor activation was 3.9.
Work on `C=C(C)C1CC=C(C)C(=O)C1` (stereo unspecified) [r-carvone] yielded an odorant receptor activation of 0.835.
In the case of `CCCCCCC=O` [heptaldehyde], the odorant receptor activation is reported as 0.492 and 0.936.
`C=C(C)C1CC=CCC1` (stereo unspecified) [r-limonene] was tested, and the odorant receptor activation was 0.764 and 0.572.
Compound `COC(=O)c1ccccc1O` [methyl salicylate] has an odorant receptor activation of 0.663.
For `CCCCCCCCOC(C)=O` [octyl acetate], the odorant receptor activation was 0.874.
`CCC1(O)C2(C)CCC(C2)C1(C)C` (stereo unspecified) [2-ethylfenchol] gave an odorant receptor activation of 0.896.
`CC(C)=CCCC(C)=CC=O` [citral] was tested, and the odorant receptor activation was 0.96.
Compound `CC1=NC(C)SC1C` (stereo unspecified) has an odorant receptor activation of 1.6.
`CC12C=CCC1C1CCC3=CC(=O)CCC3(C)C1CC2` (stereo unspecified) [androstadienone] gave an odorant receptor activation of 0.945.
For `O=C1CCCCCCCCCCCC(=O)OCCO1` [ethylene brassylate], the odorant receptor activation was 1.67.
For `CCCCCC(=O)O` [caproic acid], the odorant receptor activation was 1.
For `O=C1CCCCC1` [Cyclohexanone], the odorant receptor activation was 0.897.
Work on `CC(C)CC(=O)O` [isovaleric acid] yielded an odorant receptor activation of 1.04.

Each compound was assayed on OR6B2 R122C clone 1444 in the same assay as above. Settings: 100 µM.
`COC(=O)c1ccccc1` [methyl benzoate] gave an odorant receptor activation of 0.787.
`CCCCCOC(C)=O` [n-amyl acetate] gave an odorant receptor activation of 0.974.
`CC1COCc2cc3c(cc21)C(C)(C)C(C)C3(C)C` (stereo unspecified) [galaxolide] gave an odorant receptor activation of 1.99.
With `C=CCc1ccc(OC(C)=O)c(OC)c1` [eugenol acetate] the odorant receptor activation was 1.35.
For `CC12CCC(CC1)C(C)(C)O2` [cineole], the odorant receptor activation was 0.27.
For `CCCC(=O)O` [butyric acid], the odorant receptor activation was 0.292.
`CCCCCC(C)=O` [2-heptanone] gave an odorant receptor activation of 0.868.
Compound `CC(C)(C)c1ccc(CCC=O)cc1` [bourgeonal] has an odorant receptor activation of 0.251.
Compound `CC(=O)OC1CC2CCC1(C)C2(C)C` (stereo unspecified) [isobornyl acetate] has an odorant receptor activation of 0.771.
For `CCCCO` [1-butanol], the odorant receptor activation was 0.957.
`CC(=O)c1ccccc1` [acetophenone] was tested, and the odorant receptor activation was 1.07.
`COc1ccccc1O` [guaiacol] was tested, and the odorant receptor activation was 0.756.
With `O=CCc1ccccc1` [phenyl acetaldehyde] the odorant receptor activation was 1.47.
Work on `CC12C=CCC1C1CCC3CC(=O)CCC3(C)C1CC2` (stereo unspecified) [androstenone] yielded an odorant receptor activation of 1.12.
In the case of `C=C(C)C1CC=C(C)C(=O)C1` (stereo unspecified) [r-carvone], the odorant receptor activation is reported as 1.15.
`CCCCCCC=O` [heptaldehyde] was tested, and the odorant receptor activation was 0.752 and 0.792.
In the case of `C=C(C)C1CC=CCC1` (stereo unspecified) [r-limonene], the odorant receptor activation is reported as 1.16 and 0.966.
`COC(=O)c1ccccc1O` [methyl salicylate] was tested, and the odorant receptor activation was 0.77.
For `CCCCCCCCOC(C)=O` [octyl acetate], the odorant receptor activation was 0.607.
Work on `CCC1(O)C2(C)CCC(C2)C1(C)C` (stereo unspecified) [2-ethylfenchol] yielded an odorant receptor activation of 1.07.
`CC(C)=CCCC(C)=CC=O` [citral] showed an odorant receptor activation of 0.326.
Compound `CC1=NC(C)SC1C` (stereo unspecified) has an odorant receptor activation of 0.982.
`CC12C=CCC1C1CCC3=CC(=O)CCC3(C)C1CC2` (stereo unspecified) [androstadienone] showed an odorant receptor activation of 1.01.
With `O=C1CCCCCCCCCCCC(=O)OCCO1` [ethylene brassylate] the odorant receptor activation was 1.77.
Work on `CCCCCC(=O)O` [caproic acid] yielded an odorant receptor activation of 0.318.
With `O=C1CCCCC1` [Cyclohexanone] the odorant receptor activation was 1.01.
For `CC(C)CC(=O)O` [isovaleric acid], the odorant receptor activation was 0.648.

These compounds were tested on OR6B3 R261W clone 1445 in the same assay as above. Settings: 100 µM.
`COC(=O)c1ccccc1` [methyl benzoate] was tested, and the odorant receptor activation was 0.831.
For `CCCCCOC(C)=O` [n-amyl acetate], the odorant receptor activation was 1.03.
`CC1COCc2cc3c(cc21)C(C)(C)C(C)C3(C)C` (stereo unspecified) [galaxolide] was tested, and the odorant receptor activation was 2.31.
`C=CCc1ccc(OC(C)=O)c(OC)c1` [eugenol acetate] gave an odorant receptor activation of 1.54.
Compound `CC12CCC(CC1)C(C)(C)O2` [cineole] has an odorant receptor activation of 0.341.
Work on `CCCC(=O)O` [butyric acid] yielded an odorant receptor activation of 0.318.
Work on `CCCCCC(C)=O` [2-heptanone] yielded an odorant receptor activation of 0.923.
Compound `CC(C)(C)c1ccc(CCC=O)cc1` [bourgeonal] has an odorant receptor activation of 0.371.
`CC(=O)OC1CC2CCC1(C)C2(C)C` (stereo unspecified) [isobornyl acetate] showed an odorant receptor activation of 1.02.
With `CCCCO` [1-butanol] the odorant receptor activation was 0.83.
With `CC(=O)c1ccccc1` [acetophenone] the odorant receptor activation was 0.891.
`COc1ccccc1O` [guaiacol] was tested, and the odorant receptor activation was 1.09.
Compound `O=CCc1ccccc1` [phenyl acetaldehyde] has an odorant receptor activation of 0.932.
In the case of `CC12C=CCC1C1CCC3CC(=O)CCC3(C)C1CC2` (stereo unspecified) [androstenone], the odorant receptor activation is reported as 0.654.
For `C=C(C)C1CC=C(C)C(=O)C1` (stereo unspecified) [r-carvone], the odorant receptor activation was 0.812.
`CCCCCCC=O` [heptaldehyde] was tested, and the odorant receptor activation was 0.856 and 1.18.
`C=C(C)C1CC=CCC1` (stereo unspecified) [r-limonene] was tested, and the odorant receptor activation was 0.803 and 0.817.
`COC(=O)c1ccccc1O` [methyl salicylate] gave an odorant receptor activation of 0.935.
Work on `CCCCCCCCOC(C)=O` [octyl acetate] yielded an odorant receptor activation of 0.848.
`CCC1(O)C2(C)CCC(C2)C1(C)C` (stereo unspecified) [2-ethylfenchol] was tested, and the odorant receptor activation was 0.538.
`CC(C)=CCCC(C)=CC=O` [citral] gave an odorant receptor activation of 0.327.
Compound `CC1=NC(C)SC1C` (stereo unspecified) has an odorant receptor activation of 0.968.
Work on `CC12C=CCC1C1CCC3=CC(=O)CCC3(C)C1CC2` (stereo unspecified) [androstadienone] yielded an odorant receptor activation of 0.965.
Work on `O=C1CCCCCCCCCCCC(=O)OCCO1` [ethylene brassylate] yielded an odorant receptor activation of 1.76.
`CCCCCC(=O)O` [caproic acid] showed an odorant receptor activation of 0.326.
Work on `O=C1CCCCC1` [Cyclohexanone] yielded an odorant receptor activation of 0.841.
`CC(C)CC(=O)O` [isovaleric acid] was tested, and the odorant receptor activation was 0.885.
